The values below come from paper PMC2774295.

Chains of the proteins cited; added tags and fusions are not shown.
UniProt P25054: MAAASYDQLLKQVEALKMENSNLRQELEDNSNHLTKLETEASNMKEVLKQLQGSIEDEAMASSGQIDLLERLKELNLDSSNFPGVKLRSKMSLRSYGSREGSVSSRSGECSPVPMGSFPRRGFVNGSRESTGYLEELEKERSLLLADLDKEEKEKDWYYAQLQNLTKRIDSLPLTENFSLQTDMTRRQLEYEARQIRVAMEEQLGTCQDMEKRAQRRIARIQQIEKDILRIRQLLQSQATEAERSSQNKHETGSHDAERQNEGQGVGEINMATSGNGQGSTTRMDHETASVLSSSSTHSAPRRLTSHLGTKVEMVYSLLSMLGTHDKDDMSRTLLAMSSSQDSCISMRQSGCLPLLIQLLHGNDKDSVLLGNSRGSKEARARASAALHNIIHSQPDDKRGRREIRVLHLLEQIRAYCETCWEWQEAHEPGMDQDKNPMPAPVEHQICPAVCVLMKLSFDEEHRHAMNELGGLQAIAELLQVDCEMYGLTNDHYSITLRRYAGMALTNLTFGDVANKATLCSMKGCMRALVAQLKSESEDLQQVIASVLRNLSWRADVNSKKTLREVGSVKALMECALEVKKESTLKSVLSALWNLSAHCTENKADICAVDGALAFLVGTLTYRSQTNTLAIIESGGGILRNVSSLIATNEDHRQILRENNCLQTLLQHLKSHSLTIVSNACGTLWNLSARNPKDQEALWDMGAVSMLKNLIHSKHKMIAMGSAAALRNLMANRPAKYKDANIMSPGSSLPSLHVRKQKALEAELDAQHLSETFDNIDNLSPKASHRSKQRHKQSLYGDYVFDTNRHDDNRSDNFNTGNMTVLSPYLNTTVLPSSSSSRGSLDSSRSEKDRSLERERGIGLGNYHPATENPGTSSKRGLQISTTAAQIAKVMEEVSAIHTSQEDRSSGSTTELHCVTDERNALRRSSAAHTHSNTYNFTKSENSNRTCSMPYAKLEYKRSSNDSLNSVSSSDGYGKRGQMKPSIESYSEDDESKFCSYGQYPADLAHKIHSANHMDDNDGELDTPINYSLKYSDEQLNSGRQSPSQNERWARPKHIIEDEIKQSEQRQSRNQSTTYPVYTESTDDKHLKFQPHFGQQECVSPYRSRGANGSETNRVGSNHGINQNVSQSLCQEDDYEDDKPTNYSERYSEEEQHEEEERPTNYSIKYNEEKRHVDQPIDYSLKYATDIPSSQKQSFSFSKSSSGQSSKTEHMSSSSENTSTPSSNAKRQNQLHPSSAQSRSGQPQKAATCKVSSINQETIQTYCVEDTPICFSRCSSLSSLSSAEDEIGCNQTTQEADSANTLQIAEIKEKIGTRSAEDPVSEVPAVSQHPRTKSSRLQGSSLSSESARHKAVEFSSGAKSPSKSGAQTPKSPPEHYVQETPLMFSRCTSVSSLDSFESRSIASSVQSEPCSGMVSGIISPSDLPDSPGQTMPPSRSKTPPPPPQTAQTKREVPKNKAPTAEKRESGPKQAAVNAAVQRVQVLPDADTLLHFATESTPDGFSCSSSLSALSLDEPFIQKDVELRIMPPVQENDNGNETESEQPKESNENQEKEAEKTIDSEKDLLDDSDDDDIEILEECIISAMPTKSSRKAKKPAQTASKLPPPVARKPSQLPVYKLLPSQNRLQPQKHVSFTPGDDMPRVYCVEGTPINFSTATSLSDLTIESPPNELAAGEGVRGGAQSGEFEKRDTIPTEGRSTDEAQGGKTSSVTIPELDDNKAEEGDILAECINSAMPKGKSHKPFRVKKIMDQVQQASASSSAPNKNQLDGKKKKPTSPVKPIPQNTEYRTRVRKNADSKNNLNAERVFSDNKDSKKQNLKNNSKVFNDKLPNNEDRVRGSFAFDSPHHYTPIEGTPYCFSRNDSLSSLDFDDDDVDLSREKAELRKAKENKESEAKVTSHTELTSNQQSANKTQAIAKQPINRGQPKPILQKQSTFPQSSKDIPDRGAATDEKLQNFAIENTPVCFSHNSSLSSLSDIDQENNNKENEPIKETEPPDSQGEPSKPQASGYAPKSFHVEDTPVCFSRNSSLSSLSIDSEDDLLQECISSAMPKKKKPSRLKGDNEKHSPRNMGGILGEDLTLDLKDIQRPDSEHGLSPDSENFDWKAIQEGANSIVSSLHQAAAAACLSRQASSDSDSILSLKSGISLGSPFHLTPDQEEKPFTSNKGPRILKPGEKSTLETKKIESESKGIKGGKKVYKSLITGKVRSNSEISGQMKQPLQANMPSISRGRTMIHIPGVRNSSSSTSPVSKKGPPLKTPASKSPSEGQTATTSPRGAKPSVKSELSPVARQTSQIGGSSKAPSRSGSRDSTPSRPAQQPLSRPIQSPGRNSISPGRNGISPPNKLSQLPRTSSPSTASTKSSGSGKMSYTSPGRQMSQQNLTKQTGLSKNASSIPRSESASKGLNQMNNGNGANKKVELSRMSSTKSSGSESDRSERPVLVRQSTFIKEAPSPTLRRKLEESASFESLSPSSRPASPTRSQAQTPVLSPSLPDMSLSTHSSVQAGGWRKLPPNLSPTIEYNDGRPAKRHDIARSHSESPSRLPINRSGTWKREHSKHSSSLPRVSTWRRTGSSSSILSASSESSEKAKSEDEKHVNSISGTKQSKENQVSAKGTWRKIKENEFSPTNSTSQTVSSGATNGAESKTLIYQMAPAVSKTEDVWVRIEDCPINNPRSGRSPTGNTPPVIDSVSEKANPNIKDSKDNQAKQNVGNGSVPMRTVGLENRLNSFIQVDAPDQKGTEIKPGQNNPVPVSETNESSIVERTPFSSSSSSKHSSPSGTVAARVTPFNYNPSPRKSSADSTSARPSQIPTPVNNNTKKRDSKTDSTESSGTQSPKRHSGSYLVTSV
UniProt P20700: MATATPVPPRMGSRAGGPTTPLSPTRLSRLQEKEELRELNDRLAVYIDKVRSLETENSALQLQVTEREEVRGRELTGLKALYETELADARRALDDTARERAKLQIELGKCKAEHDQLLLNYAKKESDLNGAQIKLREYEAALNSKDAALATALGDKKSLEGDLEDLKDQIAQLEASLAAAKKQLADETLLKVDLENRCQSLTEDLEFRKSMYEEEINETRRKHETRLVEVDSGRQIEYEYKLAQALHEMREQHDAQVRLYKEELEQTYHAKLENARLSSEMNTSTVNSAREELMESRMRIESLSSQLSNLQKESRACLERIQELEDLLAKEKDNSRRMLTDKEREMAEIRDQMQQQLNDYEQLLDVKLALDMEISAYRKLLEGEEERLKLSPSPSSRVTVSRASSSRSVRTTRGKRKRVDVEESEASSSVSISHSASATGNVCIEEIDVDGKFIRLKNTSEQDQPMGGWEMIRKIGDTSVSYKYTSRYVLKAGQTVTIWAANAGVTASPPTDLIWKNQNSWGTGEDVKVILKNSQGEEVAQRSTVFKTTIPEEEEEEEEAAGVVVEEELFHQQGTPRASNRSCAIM

The test has as its target Adenomatous Polyposis Coli (APC), endogenous full-length (human (endogenous in HCT116βw)) (UniProt P25054). Nature of the test: co-IP; endogenous APC precipitated from soluble cell lysate with APC-M2 pAb crosslinked to Protein-A dynabeads, overnight at 4°C; lysis buffer 50 mM Tris pH 7.5, 0.1% NP-40, 100 mM NaCl, 1 mM MgCl2, 5 mM EDTA; partners detected by immunoblot; preimmune sera as control. Background: A western blot detects proteins with antibodies after separation by electrophoresis.

No constants are given. Whether binding was seen depends on the method and setting. Binding seen in cells or lysates may run through a third protein. Some entries that bind do so weakly or less than the wild type.

For Lamin B1 (from UniProt P20700 1-586), the binding result is reported as “binds”.
